Measurements from patent US20070099852A1, “CUCURBITACIN COMPOUNDS” (SOUTH DAKOTA STATE UNIVERSITY, priority 2005, published 2007).

Columns and labels:
HepG2 cells = settings: toxic over cytoprotective concentration
From the text: The activity of two toxins was studied first on HepG2 cells—bromobenzene (BB) and CCl4. Cells were challenged with the toxins at different concentration levels.
Experimental conditions were standardized on silybin. Cells were challenged with CCl4 (4.5×10^−3M) in presence of silybin at various concentrations.
The ratio of IC50-to-EC50 (hereafter T/A) is also indicated in this table, which gives the margin between toxic and cytoprotective concentrations.

HSC-T6 cells = assay: Serum-driven HSC-T6 proliferation, Experiment 3 (24 h, proliferating cells); assay type: cell-based, rat; settings: HSC-T6, Experiment 3, IC50/EC50

| Molecule | T/A (ratio of IC50 and EC50) (HepG2 cells) | T/A (toxic over antiproliferation concentration) (HSC-T6 cells) |
| --- | --- | --- |
| CC(=O)OC(C)(C)/C=C/C(=O)[C@](C)(O)[C@H]1[C@H](O)C[C@@]2(C)[C@@H]3CC=C4[C@H](C[C@H](O)C(=O)C4(C)C)[C@]3(C)C(=O)C[C@]12C [B, cucurbitacin B] | 2.6 | 180 |
| CC(C)(O)/C=C/C(=O)[C@](C)(O)[C@H]1[C@H](O)C[C@@]2(C)[C@@H]3CC=C4[C@@H](C[C@H](O)C(=O)C4(C)C)[C@]3(C)C(=O)C[C@]12C [D, cucurbitacin D] | 8.6 |  |
| CCOC1=CC2C(=CCC3C2(C)C(=O)CC2(C)C(C(C)(O)C(=O)C=CC(C)(C)OC(C)=O)C(O)CC32C)C(C)(C)C1=O (stereo not drawn) [E-Et] |  | 13 |
| CC(=O)OC(C)(C)/C=C/C(=O)[C@](C)(O)[C@H]1[C@H](O)C[C@@]2(C)[C@@H]3CC=C4[C@@H](C=C(O[C@@H]5O[C@H](CO)[C@@H](O)[C@H](O)[C@H]5O)C(=O)C4(C)C)[C@]3(C)C(=O)C[C@]12C [E-Gluc, cucurbitacin E glucoside] | 5.0 | 29 |
| CCCOC1=CC2C(=CCC3C2(C)C(=O)CC2(C)C(C(C)(O)C(=O)C=CC(C)(C)OC(C)=O)C(O)CC32C)C(C)(C)C1=O (stereo not drawn) [E-nPr] |  | 8 |
| CC(C)(O)/C=C/C(=O)[C@](C)(O)[C@H]1[C@H](O)C[C@@]2(C)[C@@H]3CC=C4[C@@H](C=C(O)C(=O)C4(C)C)[C@]3(C)C(=O)C[C@]12C [I, cucurbitacin I] | 5.0 | 150 |
| CCOC1=CC2C(=CCC3C2(C)C(=O)CC2(C)C(C(C)(O)C(=O)C=CC(C)(C)O)C(O)CC32C)C(C)(C)C1=O (stereo not drawn) [I-Et] |  | 10 |
| CC(C)(O)/C=C/C(=O)[C@](C)(O)C1[C@H](O)C[C@@]2(C)C3CC=C4C(C=C(O[C@@H]5O[C@H](CO)[C@@H](O)[C@H](O)[C@H]5O)C(=O)C4(C)C)[C@]3(C)C(=O)C[C@]12C (stereo partly drawn) [I-Gluc, cucurbitacin I glucoside] |  | 64 |
| COC1=CC2C(=CCC3C2(C)C(=O)CC2(C)C(C(C)(O)C(=O)C=CC(C)(C)O)C(O)CC32C)C(C)(C)C1=O (stereo not drawn) [I-Me] | 2.9 | 62 |
| CC(C)OC1=CC2C(=CCC3C2(C)C(=O)CC2(C)C(C(C)(O)C(=O)C=CC(C)(C)O)C(O)CC32C)C(C)(C)C1=O (stereo not drawn) [I-iPr] |  | 9 |
| CCCOC1=CC2C(=CCC3C2(C)C(=O)CC2(C)C(C(C)(O)C(=O)C=CC(C)(C)O)C(O)CC32C)C(C)(C)C1=O (stereo not drawn) [I-nPr, cucurbitacin I-nPr] |  | 8 |
| COC1=CC2C(=CCC3C2(C)C(=O)CC2(C)C(C(C)(O)C(=O)CCC(C)(C)O)C(O)CC32C)C(C)(C)C1=O [L-Me, L-Me ether] |  | 31 |
| CC(C)(O)/C=C/C(=O)C(C)(O)C1C(O)CC2(C)C3CC=C4C(CC(=O)C(O)C4(C)C)C3(C)C(=O)CC12C (stereo not drawn) [iso-D] | 5.8 | 139 |
| Cucurbitacin E-Me ether | 5.0 | 33 |
| cucurbitacin E |  | 54 |
